The target in the experiment is T1, Thymidine kinase 1 (human (all cell lines of the paper are human; the line used for the IP is not stated)) (UniProt P04183).
T1 sequence: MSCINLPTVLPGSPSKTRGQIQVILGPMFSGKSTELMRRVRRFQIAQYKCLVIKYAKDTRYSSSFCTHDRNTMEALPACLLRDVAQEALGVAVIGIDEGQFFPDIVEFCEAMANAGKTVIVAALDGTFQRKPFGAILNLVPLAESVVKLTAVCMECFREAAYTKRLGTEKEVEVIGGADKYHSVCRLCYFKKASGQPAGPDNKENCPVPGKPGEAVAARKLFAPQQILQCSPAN
Nature of the experiment: affinity purification with mass spectrometry; TK1 as bait; cells lysed in IP lysis buffer (20 mM Tris-HCl pH 7.4, 150 mM NaCl, 1 mM EDTA, 1% NP-40), supernatant with Protein G Sepharose beads and antibody overnight at 4°C, washes with 300 mM and 150 mM NaCl; SDS-PAGE, LC-MS/MS (Q Exactive HF, MaxQuant).

Amino acid sequences for entries named in this document (tags omitted). A change or cut given only in a name is not applied to a line headed by its entry.
UniProt P00367: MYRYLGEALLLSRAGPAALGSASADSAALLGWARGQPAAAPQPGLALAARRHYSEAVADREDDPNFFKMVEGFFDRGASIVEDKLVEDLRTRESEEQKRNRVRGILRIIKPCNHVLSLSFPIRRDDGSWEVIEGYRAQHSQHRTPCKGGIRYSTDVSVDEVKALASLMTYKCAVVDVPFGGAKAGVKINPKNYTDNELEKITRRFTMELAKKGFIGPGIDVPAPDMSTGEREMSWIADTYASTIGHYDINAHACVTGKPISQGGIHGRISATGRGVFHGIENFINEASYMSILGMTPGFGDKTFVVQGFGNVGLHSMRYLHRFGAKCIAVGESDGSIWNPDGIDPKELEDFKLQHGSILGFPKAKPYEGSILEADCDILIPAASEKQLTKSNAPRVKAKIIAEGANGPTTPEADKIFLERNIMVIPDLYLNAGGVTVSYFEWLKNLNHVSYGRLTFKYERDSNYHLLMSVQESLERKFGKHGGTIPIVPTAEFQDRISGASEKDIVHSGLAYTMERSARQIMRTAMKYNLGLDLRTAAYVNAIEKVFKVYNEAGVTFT

These are yes or no findings as the source states them, for the method shown. Binding seen in cells or lysates may run through a third protein. These calls come from enrichment with a bait or labelling near it, and not all partners need be listed.

With “glutamate dehydrogenase (from UniProt P00367) (enzyme)”, the binding result is recorded as “binds”.
